The list does not hold the whole screen: its compounds were picked by chemical class. Other doses and runs of a compound may be missing. T/C gives the treated animals as a percentage of the vehicle group. For survival time, this PubChem deposit counts one and a half times the control or more as active, and values a quarter to a half above the control carry no call in these data; other NCI protocols may use other cut-offs. Some entries show no survivor count and are marked so; the dose need not have been tolerated. Schedule codes are those of the source, taken here to give the interval after Q, in days (D) or hours (H), and the number of doses after X. Some doses were run more than once; the values are given in rising order.

Five molecules from PubChem BioAssay AID256 (DTP/NCI, 2004) can be followed below.

The assay relates to CD2F1 mice, L1210 leukemia ip, survival T/C. Kind of assay: NCI In Vivo Anticancer Drug Screen. Data for tumor model L1210 Leukemia (intraperitoneal) in CD2F1 (CDF1) mice. The following applies: higher T/C = longer survival. The method in brief:
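Each value reflects a quotient of treated over vehicle control outcomes in mice with a transplanted tumor.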

The mark [1] stands for this setting: T/C endpoint: mean survival time, dose: 6.25 mg/kg/injection, schedule: Q01DX009 (ip), vehicle: Klucel (hydroxypropylcellulose) (HPC).
The mark [2] stands for this setting: T/C endpoint: mean survival time, dose: 12.5 mg/kg/injection, schedule: Q01DX009 (ip), vehicle: Klucel (hydroxypropylcellulose) (HPC).
[3] abbreviates: T/C endpoint: mean survival time, dose: 25.0 mg/kg/injection, schedule: Q01DX009 (ip), vehicle: Klucel (hydroxypropylcellulose) (HPC).
Setting [4] is: T/C endpoint: mean survival time, dose: 50.0 mg/kg/injection, schedule: Q01DX009 (ip), vehicle: Klucel (hydroxypropylcellulose) (HPC).
[5] abbreviates: T/C endpoint: mean survival time, dose: 100.0 mg/kg/injection, schedule: Q01DX009 (ip), vehicle: Klucel (hydroxypropylcellulose) (HPC).

Turning to `ClCCNCCCl`, the T/C was 112 % of control [survivor count not shown] (T/C endpoint: mean survival time, dose: 25.0 mg/kg/injection, schedule: Q01DX007 (ip), vehicle: saline); 114 % of control [survivor count not shown] (T/C endpoint: mean survival time, dose: 25.0 mg/kg/injection, schedule: Q01DX009 (ip), vehicle: saline); 104 % of control [survivor count not shown] (T/C endpoint: mean survival time, dose: 25.0 mg/kg/injection, schedule: Q03DX003 (ip), vehicle: saline); 100 % of control [survivor count not shown] (T/C endpoint: mean survival time, dose: 25.0 mg/kg/injection, schedule: Q04DX003 (ip), vehicle: saline); 136 % of control [survivor count not shown] (T/C endpoint: mean survival time, dose: 50.0 mg/kg/injection, schedule: Q01DX007 (ip), vehicle: saline); 128 % of control [survivor count not shown] (T/C endpoint: mean survival time, dose: 50.0 mg/kg/injection, schedule: Q01DX009 (ip), vehicle: saline). Besides, the T/C by setting is: (T/C endpoint: mean survival time, dose: 50.0 mg/kg/injection, schedule: Q03DX003 (ip), vehicle: saline) 113 % of control [survivor count not shown]; (T/C endpoint: mean survival time, dose: 50.0 mg/kg/injection, schedule: Q04DX003 (ip), vehicle: saline) 112 % of control [survivor count not shown]; (T/C endpoint: mean survival time, dose: 100.0 mg/kg/injection, schedule: Q01DX007 (ip), vehicle: saline) 134 % of control [survivor count not shown]; (T/C endpoint: mean survival time, dose: 100.0 mg/kg/injection, schedule: Q01DX009 (ip), vehicle: saline) 112 % of control [survivor count not shown]; (T/C endpoint: mean survival time, dose: 100.0 mg/kg/injection, schedule: Q03DX003 (ip), vehicle: saline) 146 % of control [survivor count not shown]; (T/C endpoint: mean survival time, dose: 100.0 mg/kg/injection, schedule: Q04DX003 (ip), vehicle: saline) 177 % of control [survivor count not shown]. Moreover, the T/C (T/C endpoint: median survival time, dose: 18.8 mg/kg/injection, schedule: Q01DX009 (ip), vehicle: saline) was 111 [survivor count not shown] and 135 % of control [survivor count not shown]; the T/C (T/C endpoint: median survival time, dose: 37.5 mg/kg/injection, schedule: Q01DX009 (ip), vehicle: saline) is 111 [survivor count not shown] and 164 % of control [survivor count not shown]; the T/C (T/C endpoint: median survival time, dose: 75.0 mg/kg/injection, schedule: Q01DX009 (ip), vehicle: saline) was 128 % of control [survivor count not shown].

With `COc1ccc(N(CCCl)CCCl)cc1`, the T/C reads like this: (T/C endpoint: mean survival time, dose: 3.12 mg/kg/injection, schedule: Q01DX009 (ip), vehicle: Klucel (hydroxypropylcellulose) (HPC)) 103 % of control [survivor count not shown]; under setting [1], 108 [survivor count not shown] and 112 % of control [survivor count not shown]; under setting [2], 108 [survivor count not shown] and 116 % of control [survivor count not shown]; under setting [3], 113 [survivor count not shown] and 122 % of control [survivor count not shown]; under setting [4], 96 [survivor count not shown] and 108 % of control [survivor count not shown]; under setting [5], 89 % of control [survivor count not shown].

Consider `Cc1ccc(N(CCCl)CCCl)cc1`, for which the T/C was 103 % of control [survivor count not shown] under setting [1]; 106 % of control [survivor count not shown] under setting [2]; 108 % of control [survivor count not shown] under setting [3]; 103 % of control [survivor count not shown] under setting [4]; 105 % of control [survivor count not shown] under setting [5].

On to `CCNP(=O)(OCCC(C)=O)N(CCCl)CCCl` (stereo not drawn), for which the T/C by setting is: (T/C endpoint: mean survival time, dose: 14.7 mg/kg/injection, schedule: Q01DX001 (ip), vehicle: DMSO) 102 % of control [survivor count not shown]; (T/C endpoint: mean survival time, dose: 22.0 mg/kg/injection, schedule: Q01DX001 (ip), vehicle: DMSO) 105 % of control [survivor count not shown]; (T/C endpoint: mean survival time, dose: 33.0 mg/kg/injection, schedule: Q01DX001 (ip), vehicle: DMSO) 108 % of control [survivor count not shown]; (T/C endpoint: mean survival time, dose: 50.0 mg/kg/injection, schedule: Q01DX001 (ip), vehicle: DMSO) 111 [survivor count not shown] and 135 % of control [survivor count not shown]; (T/C endpoint: mean survival time, dose: 75.0 mg/kg/injection, schedule: Q01DX001 (ip), vehicle: DMSO) 141 % of control [survivor count not shown]; (T/C endpoint: mean survival time, dose: 113.0 mg/kg/injection, schedule: Q01DX001 (ip), vehicle: DMSO) 155 % of control [survivor count not shown].

Take `O=P1(N(CCCl)CCCl)NCC(O)CCO1` (stereo not drawn): the T/C is 97 % of control [survivor count not shown] (T/C endpoint: mean survival time, dose: 15.62 mg/kg/injection, schedule: Q01DX001 (ip), vehicle: DMSO); 109 % of control [survivor count not shown] (T/C endpoint: mean survival time, dose: 31.25 mg/kg/injection, schedule: Q01DX001 (ip), vehicle: DMSO); 93 % of control [survivor count not shown] (T/C endpoint: mean survival time, dose: 62.5 mg/kg/injection, schedule: Q01DX001 (ip), vehicle: DMSO); 101 % of control [survivor count not shown] (T/C endpoint: mean survival time, dose: 125.0 mg/kg/injection, schedule: Q01DX001 (ip), vehicle: DMSO); 104 % of control [survivor count not shown] (T/C endpoint: mean survival time, dose: 250.0 mg/kg/injection, schedule: Q01DX001 (ip), vehicle: DMSO); 101 % of control [survivor count not shown] (T/C endpoint: mean survival time, dose: 500.0 mg/kg/injection, schedule: Q01DX001 (ip), vehicle: DMSO).
